Test results from patent publication US7674907B2, “Furanopyridine derivatives and methods of use” (Amgen Inc., priority 2004, dated 2010).
Some entries share one result that the patent states for a list of compounds.

Protein sequences, listed by entry. Tags and fused reporters are not part of them. Residues count along the entry.
UniProt P06239, 225-509: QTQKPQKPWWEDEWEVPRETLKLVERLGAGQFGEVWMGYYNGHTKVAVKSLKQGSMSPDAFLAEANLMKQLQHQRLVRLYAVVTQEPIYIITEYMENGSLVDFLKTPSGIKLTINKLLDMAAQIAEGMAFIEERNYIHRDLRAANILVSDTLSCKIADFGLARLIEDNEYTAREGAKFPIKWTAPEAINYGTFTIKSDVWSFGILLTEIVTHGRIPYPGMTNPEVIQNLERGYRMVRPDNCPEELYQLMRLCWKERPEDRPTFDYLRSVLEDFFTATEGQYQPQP
UniProt Q07912, 117-489: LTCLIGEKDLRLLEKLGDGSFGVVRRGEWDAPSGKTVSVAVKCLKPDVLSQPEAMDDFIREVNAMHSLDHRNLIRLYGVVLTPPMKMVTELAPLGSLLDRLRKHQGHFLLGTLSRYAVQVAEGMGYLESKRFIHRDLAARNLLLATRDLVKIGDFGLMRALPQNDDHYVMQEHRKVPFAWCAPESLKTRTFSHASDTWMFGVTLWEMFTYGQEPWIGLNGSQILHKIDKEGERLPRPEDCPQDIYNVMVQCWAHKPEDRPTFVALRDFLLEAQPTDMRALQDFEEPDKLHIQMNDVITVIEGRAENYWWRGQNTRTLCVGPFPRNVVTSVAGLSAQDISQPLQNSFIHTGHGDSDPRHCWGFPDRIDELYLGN

Key:
Lck kinase enzyme = target: T1, Lck kinase enzyme (Homo sapiens, UniProt P06239); test: LCK-Homogeneous Time Resolved Fluorescent (HTRF) kinase assay; assay type: biochemical; details: read-out: average IC50 value in the human HTRF assay, inhibition of the Lck kinase enzyme
T1 construct: LCK KD GST (225-509); GST

ACK1 = target: T2, ACK1 (Homo sapiens, UniProt Q07912); test: ACK1 enzymatic assay (ELISA, PGT substrate); assay type: biochemical; details: read-out: average IC50 value in the ACK1 kinase enzymatic assay
T2 construct: a fusion of an N-terminal (His)6 Tag with amino acids 117 to 489 of ACK1; (His)6 (N); made in house; host or cells: baculovirus infected Hi-5 insect cells

c1ccc(-c2c(-c3ccc(OCCN4CCOCC4)cc3)oc3nccc(NCCN4CCOCC4)c23)cc1 [Example 4, N-(2-(4-morpholinyl)ethyl)-2-(4-((2-(4-morpholinyl)ethyl)oxy)phenyl)-3-phenylfuro[2,3-b]pyridin-4-amine]
IC50 (Lck kinase enzyme): ≤ 5 µM | IC50 (ACK1): ≤ 5 µM

N#Cc1cnc2oc(-c3ccccc3)c(-c3ccccc3)c2c1NC[C@@H]1CCCO1 [Example 5, 2,3-diphenyl-4-(((2S)-tetrahydro-2-furanylmethyl)amino)furo[2,3-b]pyridine-5-carbonitrile]
IC50 (Lck kinase enzyme): ≤ 5 µM | IC50 (ACK1): ≤ 5 µM

N#Cc1cnc2oc(-c3ccccc3)c(-c3ccccc3)c2c1NCCN1CCNCC1 [Example 8, 2,3-diphenyl-4-((2-(1-piperazinyl)ethyl)amino)furo[2,3-b]pyridine-5-carbonitrile]
IC50 (Lck kinase enzyme): ≤ 5 µM | IC50 (ACK1): ≤ 5 µM

NCc1cnc2oc(-c3ccccc3)c(-c3ccccc3)c2c1NCCN1CCNCC1 [Example 10, 5-(aminomethyl)-2,3-diphenyl-N-(2-(1-piperazinyl)ethyl)furo[2,3-b]pyridin-4-amine]
IC50 (Lck kinase enzyme): ≤ 5 µM | IC50 (ACK1): ≤ 5 µM

c1ccc(-c2c(-c3ccc(OCCn4cccc4)cc3)oc3nccc(NCCN4CCNCC4)c23)cc1 [Example 13, 3-phenyl-N-(2-(1-piperazinyl)ethyl)-2-(4-((2-(1H-pyrrol-1-yl)ethyl)oxy)phenyl)furo[2,3-b]pyridin-4-amine]
IC50 (Lck kinase enzyme): ≤ 5 µM | IC50 (ACK1): ≤ 5 µM

c1ccc(-c2oc3nccc(NCCN4CCNCC4)c3c2-c2ccc(OCCN3CCOCC3)cc2)cc1 [Example 15, 3-(4-((2-(4-morpholinyl)ethyl)oxy)phenyl)-2-phenyl-N-(2-(1-piperazinyl)ethyl)furo[2,3-b]pyridin-4-amine]
IC50 (Lck kinase enzyme): ≤ 5 µM | IC50 (ACK1): ≤ 5 µM

N#Cc1cnc2oc(-c3ccccc3)c(-c3ccccc3)c2c1NCCc1cccnc1 [Example 17, 2,3-diphenyl-4-((2-(3-pyridinyl)ethyl)amino)furo[2,3-b]pyridine-5-carbonitrile]
IC50 (Lck kinase enzyme): ≤ 5 µM | IC50 (ACK1): ≤ 5 µM

Cc1cccc(CNc2c(C#N)cnc3oc(-c4ccccc4)c(-c4ccccc4)c23)c1 [Example 18, 4-(((3-methylphenyl)methyl)amino)-2,3-diphenylfuro[2,3-b]pyridine-5-carbonitrile]
IC50 (ACK1): ≤ 5 µM

N#Cc1cnc2oc(-c3ccccc3)c(-c3ccccc3)c2c1NCCN1CCCC1 [Example 20, 2,3-diphenyl-4-((2-(1-pyrrolidinyl)ethyl)amino)furo[2,3-b]pyridine-5-carbonitrile]
IC50 (ACK1): ≤ 5 µM

N#Cc1cnc2oc(-c3ccccc3)c(-c3ccccc3)c2c1NCCN1CCCCC1 [Example 21, 2,3-diphenyl-4-((2-(1-piperidinyl)ethyl)amino)furo[2,3-b]pyridine-5-carbonitrile]
IC50 (ACK1): ≤ 5 µM

CN1CCC[C@H]1CCNc1c(C#N)cnc2oc(-c3ccccc3)c(-c3ccccc3)c12 [Example 24, 4-((2-((2S)-1-methyl-2-pyrrolidinyl)ethyl)amino)-2,3-diphenylfuro[2,3-b]pyridine-5-carbonitrile]
IC50 (Lck kinase enzyme): ≤ 5 µM | IC50 (ACK1): ≤ 5 µM

Nc1n[nH]c2c1cnc1oc(-c3ccccc3)c(-c3ccccc3)c12 [Example 26, 7,8-diphenyl-1H-furo[2,3-b]pyrazolo[3,4-d]pyridin-3-amine]
IC50 (Lck kinase enzyme): ≤ 5 µM | IC50 (ACK1): ≤ 5 µM

CCN(CC)CCC[C@@H](C)Nc1c(C#N)cnc2oc(-c3ccccc3)c(-c3ccccc3)c12 [Example 27, 4-(((1R)-4-(diethylamino)-1-methylbutyl)amino)-2,3-diphenylfuro[2,3-b]pyridine-5-carbonitrile]
IC50 (Lck kinase enzyme): ≤ 5 µM | IC50 (ACK1): ≤ 5 µM

CN(C)CCCCNc1c(C#N)cnc2oc(-c3ccccc3)c(-c3ccccc3)c12 [Example 29, 4-((4-(dimethylamino)butyl)amino)-2,3-diphenylfuro[2,3-b]pyridine-5-carbonitrile]
IC50 (Lck kinase enzyme): ≤ 5 µM | IC50 (ACK1): ≤ 5 µM

N#Cc1cnc2oc(-c3ccccc3)c(-c3ccccc3)c2c1NCCCO [Example 33, 4-((3-hydroxypropyl)amino)-2,3-diphenylfuro[2,3-b]pyridine-5-carbonitrile]
IC50 (Lck kinase enzyme): ≤ 5 µM | IC50 (ACK1): ≤ 5 µM

N#Cc1cnc2oc(-c3ccccc3)c(-c3ccccc3)c2c1NCCn1ccnc1 [Example 34, 4-((2-(1H-imidazol-1-yl)ethyl)amino)-2,3-diphenylfuro[2,3-b]pyridine-5-carbonitrile]
IC50 (Lck kinase enzyme): ≤ 5 µM | IC50 (ACK1): ≤ 5 µM

N#Cc1cnc2oc(-c3ccccc3)c(-c3ccccc3)c2c1N [Example 35, 4-amino-2,3-diphenylfuro[2,3-b]pyridine-5-carbonitrile]
IC50 (Lck kinase enzyme): ≤ 5 µM | IC50 (ACK1): ≤ 5 µM

CC(=O)Nc1n[nH]c2c1cnc1oc(-c3ccccc3)c(-c3ccccc3)c12 [Example 37, N-(7,8-diphenyl-1H-furo[2,3-b]pyrazolo[3,4-d]pyridin-3-yl)acetamide]
IC50 (Lck kinase enzyme): ≤ 5 µM | IC50 (ACK1): ≤ 5 µM

CN(C)CCCNc1ccnc2oc(-c3ccc(OCCN4CCCCC4)cc3)c(-c3ccccc3)c12 [Example 40, N~1~,N~1~-dimethyl-N~3~-(3-phenyl-2-(4-((2-(1-piperidinyl)ethyl)oxy)phenyl)furo[2,3-b]pyridin-4-yl)-1,3-propanediamine]
IC50 (Lck kinase enzyme): ≤ 5 µM | IC50 (ACK1): ≤ 5 µM

CN1CCCC(COc2ccc(-c3oc4nccc(NCCN5CCNCC5)c4c3-c3ccccc3)cc2)C1 (centres unmarked) [Example 41, 2-(4-(((1-methyl-3-piperidinyl)methyl)oxy)phenyl)-3-phenyl-N-(2-(1-piperazinyl)ethyl)furo[2,3-b]pyridin-4-amine]
IC50 (Lck kinase enzyme): ≤ 5 µM | IC50 (ACK1): ≤ 5 µM

N#Cc1cnc2oc(-c3ccccc3)c(-c3ccccc3)c2c1NCCCC(=O)O [Example 42, 4-((5-cyano-2,3-diphenylfuro[2,3-b]pyridin-4-yl)amino)butanoic acid]
IC50 (Lck kinase enzyme): ≤ 5 µM | IC50 (ACK1): ≤ 5 µM

N#Cc1cnc2oc(-c3ccccc3)c(-c3ccccc3)c2c1NCC[C@H](O)C(=O)O [Example 43, (2S)-4-((5-cyano-2,3-diphenylfuro[2,3-b]pyridin-4-yl)amino)-2-hydroxybutanoic acid]
IC50 (Lck kinase enzyme): ≤ 5 µM | IC50 (ACK1): ≤ 5 µM

CC(C)(C)OC(=O)N1CCN(CCNc2c(C#N)cnc3oc(-c4ccc(OCCN5CCCC5)cc4)c(-c4ccccc4)c23)CC1 [Example 44, 1,1-dimethylethyl 4-(2-((5-cyano-3-phenyl-2-(4-((2-(1-pyrrolidinyl)ethyl)oxy)phenyl)furo[2,3-b]pyridin-4-yl)amino)ethyl)-1-piperazinecarboxylate]
IC50 (Lck kinase enzyme): ≤ 5 µM | IC50 (ACK1): ≤ 5 µM

N#Cc1cnc2oc(-c3ccc(OCCN4CCCC4)cc3)c(-c3ccccc3)c2c1NCCN1CCNCC1 [Example 45, 3-phenyl-4-((2-(1-piperazinyl)ethyl)amino)-2-(4-((2-(1-pyrrolidinyl)ethyl)oxy)phenyl)furo[2,3-b]pyridine-5-carbonitrile]
IC50 (Lck kinase enzyme): ≤ 5 µM | IC50 (ACK1): ≤ 5 µM

O=C(Nc1n[nH]c2c1cnc1oc(-c3ccccc3)c(-c3ccccc3)c12)c1ccccc1 [Example 46, N-(7,8-diphenyl-1H-furo[2,3-b]pyrazolo[3,4-d]pyridin-3-yl)benzamide]
IC50 (ACK1): ≤ 5 µM

CCN1CCN(CCNc2c(C#N)cnc3oc(-c4ccccc4)c(-c4ccccc4)c23)CC1 [Example 48, 4-((2-(4-ethyl-1-piperazinyl)ethyl)amino)-2,3-diphenylfuro[2,3-b]pyridine-5-carbonitrile]
IC50 (Lck kinase enzyme): ≤ 5 µM | IC50 (ACK1): ≤ 5 µM

COCCOc1ccc(-c2oc3nccc(NCCN4CCNCC4)c3c2-c2ccccc2)cc1 [Example 49, 2-(4-((2-(methyloxy)ethyl)oxy)phenyl)-3-phenyl-N-(2-(1-piperazinyl)ethyl)furo[2,3-b]pyridin-4-amine]
IC50 (Lck kinase enzyme): ≤ 5 µM | IC50 (ACK1): ≤ 5 µM

CCNC(=O)Nc1n[nH]c2c1cnc1oc(-c3ccccc3)c(-c3ccccc3)c12 [Example 50, N-(7,8-diphenyl-1H-furo[2,3-b]pyrazolo[3,4-d]pyridin-3-yl)-N′-ethylurea]
IC50 (Lck kinase enzyme): ≤ 5 µM | IC50 (ACK1): ≤ 5 µM

CC(C)(C)NC(=O)Nc1n[nH]c2c1cnc1oc(-c3ccccc3)c(-c3ccccc3)c12 [Example 51, N-(1,1-dimethylethyl)-N′-(7,8-diphenyl-1H-furo[2,3-b]pyrazolo[3,4-d]pyridin-3-yl)urea]
IC50 (Lck kinase enzyme): ≤ 5 µM | IC50 (ACK1): ≤ 5 µM

COc1ccccc1CCNc1ccnc2oc(-c3ccc(OCCN(C)C)cc3)c(-c3ccccc3)c12 [Example 80, 2-(4-((2-(dimethylamino)ethyl)oxy)phenyl)-N-(2-(2-(methyloxy)phenyl)ethyl)-3-phenylfuro[2,3-b]pyridin-4-amine]
IC50 (Lck kinase enzyme): ≤ 5 µM

COC1CCC1CNc1c(F)cnc2oc(-c3ccc(OCCN(C)C)cc3)c(-c3ccccc3)c12 (centres unmarked) [Example 81, 2-(4-((2-(dimethylamino)ethyl)oxy)phenyl)-5-fluoro-N-((2-(methyloxy)cyclobutyl)methyl)-3-phenylfuro[2,3-b]pyridin-4-amine]
IC50 (Lck kinase enzyme): ≤ 5 µM

CN(C)CCOc1ccc(-c2oc3ncc(F)c(NC[C@@H]4CCCO4)c3c2-c2ccccc2)cc1 [Example 82, 2-(4-((2-(dimethylamino)ethyl)oxy)phenyl)-5-fluoro-3-phenyl-N-((2S)-tetrahydro-2-furanylmethyl)furo[2,3-b]pyridin-4-amine]
IC50 (Lck kinase enzyme): ≤ 5 µM

CN(C)CCOc1ccc(-c2oc3ncc(F)c(NCCc4ccccn4)c3c2-c2ccccc2)cc1 [Example 83, 2-(4-((2-(dimethylamino)ethyl)oxy)phenyl)-5-fluoro-3-phenyl-N-(2-(2-pyridinyl)ethyl)furo[2,3-b]pyridin-4-amine]
IC50 (Lck kinase enzyme): ≤ 5 µM

CN(C)CCOc1ccc(-c2oc3nccc(NCC4CSCN4)c3c2-c2ccccc2)cc1 (centres unmarked) [compound number 24 of scheme 17, 2-[4-(2-Dimethylamino)ethoxy]phenyl-3-phenyl-4-(3-thiazolidyl)methylamino-7-azabenzo[b]furan]
IC50 (Lck kinase enzyme): ≤ 5 µM
